PubChem BioAssay AID504771, Drosophila RNAi Screening Center | 2011
Only reagents picked out of a larger screen are listed. 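All genes were primary candidates; inactive means validation failed, not no effect; aggregate scores behind calls are not deposited.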 A plus sign joins genes that one reagent is predicted to hit.

Aim: 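Knock-downs that increase or decrease Htt-Q46 aggregates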 (follow-up of hits)
Cells: Drosophila S2 cells with copper-inducible mutant huntingtin exon 1 (46 glutamines)-eGFP
Reagent: long dsRNA against Drosophila genes, 250 ng dsRNA per well
Duration: 3 days of knock-down, then 2 days of copper induction before fixing
Treatment: copper sulfate at 400 µM to switch on Htt-Q46-eGFP expression
Measured: 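Automated image analysis of GFP-tagged aggregates per well: number, size and intensity against plate mean and SD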
Rule for the call: 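Primary candidate if any aggregate measure lay more than 2 SD from the plate mean; active only if it then passed checks for off-target effects, reproducibility, independent dsRNAs and a promoter counter-screen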
Calls: active = confirmed modifier; inactive = primary candidate not confirmed

gene | amplicon | aggregation phenotype | Call
Ctr9 | DRSC08562 | knock-down lowers aggregates | inactive
Taf9 (TBP-associated factor 9) | DRSC20326 | knock-down raises aggregates | active
Taf13 (TBP-associated factor 13) | DRSC02106 | knock-down raises aggregates | inactive
Pp1-Y1 (Protein phosphatase 1, Y-linked 1) | DRSC20896 | knock-down lowers aggregates | inactive
Dhfr (Dihydrofolate reductase) | DRSC16646 | knock-down lowers aggregates | inactive
Klp98A (Kinesin-like protein at 98A) | DRSC21834 | knock-down lowers aggregates | inactive
RpS9 (Ribosomal protein S9) | DRSC11273 | knock-down lowers aggregates | inactive
RpL38 (Ribosomal protein L38) | DRSC07818 | knock-down lowers aggregates | inactive
CG8545 | DRSC07210 | knock-down lowers aggregates | inactive
CG2182 | DRSC12308 | knock-down lowers aggregates | inactive
tsr (twinstar) | DRSC04718 | knock-down lowers aggregates | inactive
pths (porthos) | DRSC03171 | knock-down lowers aggregates | inactive
CG11997 | DRSC14464 | knock-down raises aggregates | inactive
Pp1-87B (Protein phosphatase 1 at 87B) | DRSC16794 | knock-down lowers aggregates | inactive
Edem2 (ER degradation enhancer, mannosidase alpha-like 2) | DRSC02877 | knock-down lowers aggregates | inactive
lwr (lesswright) | DRSC00828 | knock-down lowers aggregates | active
CG2685 | DRSC18463 | knock-down lowers aggregates | inactive
TfIIEbeta (Transcription factor IIEbeta) | DRSC08701 | knock-down lowers aggregates | inactive
tau | DRSC14569 | knock-down raises aggregates | inactive
Fs(2)Ket (Female sterile (2) Ketel) | DRSC03328 | knock-down lowers aggregates | inactive
COX4 (Cytochrome c oxidase subunit 4) | DRSC02091 | knock-down lowers aggregates | inactive
Nipped-A | DRSC04883 | knock-down raises aggregates | active
CG14641 | DRSC12227 | knock-down lowers aggregates | inactive
Polr3B (RNA polymerase III subunit B) | DRSC07536 | knock-down lowers aggregates | inactive
Rab11 | DRSC16809 | knock-down lowers aggregates | active
RpLP0 (Ribosomal protein LP0) | DRSC11878 | knock-down lowers aggregates | inactive
RpLP0 (Ribosomal protein LP0) | DRSC22110 | knock-down lowers aggregates | inactive
Pfk (Phosphofructokinase) | DRSC07506 | knock-down raises aggregates | active
Tbp (TATA binding protein) | DRSC04662 | knock-down lowers aggregates | inactive
Tbp (TATA binding protein) | DRSC23111 | knock-down lowers aggregates | inactive
Prosalpha1 + Prosalpha1R | DRSC07515 | knock-down lowers aggregates | inactive
Pss (Phosphatidylserine synthase) | DRSC11757 | knock-down lowers aggregates | inactive
alph (alphabet) | DRSC15398 | knock-down raises aggregates | active
Rpn1 (Regulatory particle non-ATPase 1) | DRSC11274 | knock-down lowers aggregates | active
CG4849 | DRSC15662 | knock-down lowers aggregates | inactive
Cdk2 (Cyclin-dependent kinase 2) | DRSC16921 | knock-down raises aggregates | inactive
Gar1 (Gar1 ribonucleoprotein) | DRSC04441 | knock-down lowers aggregates | inactive
Hmgcr (HMG Coenzyme A reductase) | DRSC16704 | knock-down lowers aggregates | active
RpS26 (Ribosomal protein S26) | DRSC03420 | knock-down lowers aggregates | inactive
eIF2gamma (eukaryotic translation initiation factor 2 subunit gamma) | DRSC13081 | knock-down lowers aggregates | inactive
CG18367 | DRSC06545 | knock-down raises aggregates | inactive
Prp18 | DRSC16802 | knock-down lowers aggregates | inactive
Cdc5 (Cell division cycle 5) | DRSC08577 | knock-down lowers aggregates | active
CG13623 | DRSC14625 | knock-down lowers aggregates | inactive
CG12093 | DRSC08252 | knock-down raises aggregates | inactive
Su(Tpl) (Suppressor of Triplolethal) | DRSC10954 | knock-down lowers aggregates | inactive
Pits (Protein interacting with Ttk69 and Sin3A) | DRSC19385 | knock-down lowers aggregates | inactive
CG13360 | DRSC18536 | knock-down raises aggregates | inactive
Atf-2 (Activating transcription factor-2) | DRSC04413 | knock-down lowers aggregates | inactive
eIF3c (eukaryotic translation initiation factor 3 subunit c) | DRSC06905 | knock-down lowers aggregates | inactive
Nacalpha (Nascent polypeptide associated complex protein alpha subunit) | DRSC07477 | knock-down lowers aggregates | inactive
RpL18A (Ribosomal protein L18A) | DRSC07538 | knock-down lowers aggregates | inactive
Prosbeta3 (Proteasome beta3 subunit) | DRSC16801 | knock-down lowers aggregates | inactive
Efa6 (Exchange factor for Arf 6) | DRSC15312 | knock-down raises aggregates | inactive
Pgk (Phosphoglycerate kinase) | DRSC23340 | knock-down lowers aggregates | active
rl (rolled) | DRSC20742 | knock-down lowers aggregates | inactive
Dhx15 (DEAH-box helicase 15) | DRSC06036 | knock-down lowers aggregates | inactive
Nxt1 (NTF2-related export protein 1) | DRSC04630 | knock-down lowers aggregates | inactive
Rrp45 | DRSC20198 | knock-down lowers aggregates | inactive
MED24 (Mediator complex subunit 24) | DRSC10944 | knock-down lowers aggregates | inactive
beat-Vb (beaten path Vb) | DRSC12940 | knock-down raises aggregates | inactive
RpL12 (Ribosomal protein L12) | DRSC04344 | knock-down lowers aggregates | inactive
S6KL (S6 Kinase Like) | DRSC19349 | knock-down raises aggregates | inactive
Tif-IA | DRSC03726 | knock-down lowers aggregates | inactive
Atx2 (Ataxin-2) | DRSC23010 | knock-down lowers aggregates | active
CG7214 | DRSC03028 | knock-down lowers aggregates | inactive
MED22 (Mediator complex subunit 22) | DRSC18175 | knock-down lowers aggregates | inactive
Taf12 (TBP-associated factor 12) | DRSC16879 | knock-down raises aggregates | inactive
xmas | DRSC21306 | knock-down lowers aggregates | inactive
RpL10 (Ribosomal protein L10) | DRSC11947 | knock-down lowers aggregates | inactive
MED16 (Mediator complex subunit 16) | DRSC04506 | knock-down lowers aggregates | inactive
Wnk (Wnk kinase) | DRSC11813 | knock-down lowers aggregates | inactive
CG6015 | DRSC15948 | knock-down lowers aggregates | inactive
CG34181 | DRSC01071 | knock-down lowers aggregates | inactive
UQCR-C2 (Ubiquinol-cytochrome c reductase core protein 2) | DRSC10405 | knock-down lowers aggregates | inactive
Nelf-A (Negative elongation factor A) | DRSC15903 | knock-down may raise aggregates | active
CG4294 | DRSC04460 | knock-down lowers aggregates | active
Vha26 (Vacuolar H[+]-ATPase 26kD subunit) | DRSC12371 | knock-down raises aggregates | inactive
Bub3 | DRSC14168 | knock-down lowers aggregates | active
par-1 | DRSC05792 | knock-down raises aggregates | inactive
SMC2 (Structural maintenance of chromosomes 2) | DRSC07544 | knock-down lowers aggregates | inactive
PyK (Pyruvate kinase) | DRSC16806 | knock-down lowers aggregates | active
mTor (mechanistic Target of rapamycin) | DRSC02811 | – | active
cactin | DRSC20576 | knock-down lowers aggregates | active
RpL6 (Ribosomal protein L6) | DRSC14323 | knock-down lowers aggregates | inactive
RpL6 (Ribosomal protein L6) | DRSC22384 | knock-down lowers aggregates | inactive
msk (moleskin) | DRSC11340 | knock-down lowers aggregates | inactive
CG33272 | DRSC09116 | knock-down raises aggregates | inactive
Chro (Chromator) | DRSC11630 | knock-down raises aggregates | active
Nnp-1 | DRSC02165 | knock-down lowers aggregates | active
MESR4 (Misexpression suppressor of ras 4) | DRSC06901 | knock-down raises aggregates | active
RpS8 (Ribosomal protein S8) | DRSC16318 | knock-down lowers aggregates | inactive
r-l (rudimentary-like) | DRSC17042 | knock-down lowers aggregates | inactive
r-l (rudimentary-like) | DRSC22784 | knock-down lowers aggregates | inactive
RpLP2 (Ribosomal protein LP2) | DRSC07539 | knock-down lowers aggregates | inactive
pAbp (poly(A) binding protein) | DRSC07659 | knock-down lowers aggregates | inactive
ND-42 (NADH dehydrogenase (ubiquinone) 42 kDa subunit) | DRSC16754 | knock-down lowers aggregates | inactive
mRpS22 (mitochondrial ribosomal protein S22) | DRSC14488 | knock-down lowers aggregates | inactive
gammaCOP (Coat Protein (coatomer) gamma) | DRSC16955 | knock-down lowers aggregates | inactive
CG33639 | DRSC22820 | knock-down raises aggregates | inactive
SNF4Agamma (SNF4/AMP-activated protein kinase gamma subunit) | DRSC13461 | knock-down lowers aggregates | inactive
Sec71 (Secretory 71) | DRSC01893 | knock-down lowers aggregates | inactive
RpL23A (Ribosomal protein L23A) | DRSC08694 | knock-down lowers aggregates | inactive
ps (pasilla) | DRSC16388 | knock-down lowers aggregates | inactive
Dis3 | DRSC16034 | knock-down lowers aggregates | inactive
TfIIFbeta (Transcription factor TFIIFbeta) | DRSC21447 | knock-down lowers aggregates | inactive
Bap60 (Brahma associated protein 60kD) | DRSC19337 | knock-down lowers aggregates | inactive
deltaCOP (Coat Protein (coatomer) delta) | DRSC18760 | knock-down lowers aggregates | inactive
Fib (Fibrillarin) | DRSC04614 | knock-down lowers aggregates | inactive
pix (pixie) | DRSC10533 | knock-down lowers aggregates | inactive
